Consider two substances from publication PMC12166428.

By UniProt entry, the sequences of proteins in these tests, tags left out.
UniProt Q08211: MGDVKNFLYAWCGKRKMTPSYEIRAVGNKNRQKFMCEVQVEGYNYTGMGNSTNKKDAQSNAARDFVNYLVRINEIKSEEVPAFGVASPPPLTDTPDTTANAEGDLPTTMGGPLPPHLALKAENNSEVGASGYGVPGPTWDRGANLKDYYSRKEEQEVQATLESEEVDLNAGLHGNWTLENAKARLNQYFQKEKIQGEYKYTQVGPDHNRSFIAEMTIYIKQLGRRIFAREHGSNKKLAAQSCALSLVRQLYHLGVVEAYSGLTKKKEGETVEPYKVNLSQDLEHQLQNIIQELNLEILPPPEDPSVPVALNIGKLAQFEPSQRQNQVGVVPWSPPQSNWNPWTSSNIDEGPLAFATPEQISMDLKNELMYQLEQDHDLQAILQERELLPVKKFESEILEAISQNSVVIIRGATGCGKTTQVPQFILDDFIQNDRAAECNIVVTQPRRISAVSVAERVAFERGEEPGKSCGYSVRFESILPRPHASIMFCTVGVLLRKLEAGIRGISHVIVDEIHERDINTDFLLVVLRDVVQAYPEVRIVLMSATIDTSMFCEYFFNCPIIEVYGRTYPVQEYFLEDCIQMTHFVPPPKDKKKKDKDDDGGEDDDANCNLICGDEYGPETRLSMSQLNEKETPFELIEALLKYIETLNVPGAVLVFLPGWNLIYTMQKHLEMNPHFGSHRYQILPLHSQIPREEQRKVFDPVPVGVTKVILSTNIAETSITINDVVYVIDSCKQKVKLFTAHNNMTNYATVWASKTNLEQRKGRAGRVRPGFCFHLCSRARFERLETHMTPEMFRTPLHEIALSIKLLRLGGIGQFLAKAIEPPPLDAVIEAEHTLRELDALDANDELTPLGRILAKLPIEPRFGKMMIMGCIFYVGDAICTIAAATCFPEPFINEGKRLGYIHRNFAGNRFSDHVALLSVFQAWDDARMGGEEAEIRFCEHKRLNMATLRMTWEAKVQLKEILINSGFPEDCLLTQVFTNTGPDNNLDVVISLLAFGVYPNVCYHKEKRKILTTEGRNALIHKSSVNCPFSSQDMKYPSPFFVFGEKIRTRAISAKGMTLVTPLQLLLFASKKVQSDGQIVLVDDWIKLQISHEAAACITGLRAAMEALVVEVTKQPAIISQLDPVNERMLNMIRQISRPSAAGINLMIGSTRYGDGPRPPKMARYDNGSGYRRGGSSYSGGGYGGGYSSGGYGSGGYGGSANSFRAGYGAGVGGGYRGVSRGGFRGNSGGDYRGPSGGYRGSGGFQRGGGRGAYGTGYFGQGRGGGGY
UniProt P05198: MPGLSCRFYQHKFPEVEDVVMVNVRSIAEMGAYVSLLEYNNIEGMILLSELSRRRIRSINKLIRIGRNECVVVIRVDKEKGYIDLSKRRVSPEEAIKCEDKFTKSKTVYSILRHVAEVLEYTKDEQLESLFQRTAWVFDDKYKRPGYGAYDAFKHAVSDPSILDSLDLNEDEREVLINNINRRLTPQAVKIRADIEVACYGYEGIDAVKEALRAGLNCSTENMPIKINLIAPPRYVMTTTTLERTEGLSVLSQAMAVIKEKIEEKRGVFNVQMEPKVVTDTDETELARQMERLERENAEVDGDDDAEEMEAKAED
UniProt P55884: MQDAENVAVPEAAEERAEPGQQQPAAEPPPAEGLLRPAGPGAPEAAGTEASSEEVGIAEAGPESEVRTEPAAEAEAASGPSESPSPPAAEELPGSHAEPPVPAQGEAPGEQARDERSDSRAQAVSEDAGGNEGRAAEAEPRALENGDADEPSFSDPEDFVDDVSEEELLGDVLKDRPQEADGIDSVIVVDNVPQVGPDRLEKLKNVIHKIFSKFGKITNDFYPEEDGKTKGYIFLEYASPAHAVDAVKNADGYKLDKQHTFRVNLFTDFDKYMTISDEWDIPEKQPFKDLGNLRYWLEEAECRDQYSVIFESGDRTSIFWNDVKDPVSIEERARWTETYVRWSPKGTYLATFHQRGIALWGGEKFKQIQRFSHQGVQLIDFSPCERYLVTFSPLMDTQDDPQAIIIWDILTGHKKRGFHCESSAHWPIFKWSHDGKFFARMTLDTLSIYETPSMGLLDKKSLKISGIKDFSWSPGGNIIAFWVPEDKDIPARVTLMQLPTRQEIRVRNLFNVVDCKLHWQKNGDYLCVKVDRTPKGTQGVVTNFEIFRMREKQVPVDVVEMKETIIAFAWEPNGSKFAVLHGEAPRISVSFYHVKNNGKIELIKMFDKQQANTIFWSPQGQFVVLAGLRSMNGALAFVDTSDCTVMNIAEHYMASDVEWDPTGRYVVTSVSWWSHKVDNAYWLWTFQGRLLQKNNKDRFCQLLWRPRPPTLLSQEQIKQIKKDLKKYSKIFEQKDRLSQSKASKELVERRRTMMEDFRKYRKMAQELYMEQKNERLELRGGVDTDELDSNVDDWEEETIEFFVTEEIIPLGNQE

For this assay, the target named is DExH-box helicase-9 (DHX9) (human (endogenous in HeLa)) (UniProt Q08211). The assay can be described thus: co-IP; HeLa cells with or without 100 uM H2O2 for 1 h, lysed in RIPA buffer (RNase inhibitor in the indicated groups); DHX9 antibody (sc-137232) or mouse IgG overnight at 4 C, protein A/G agarose beads; Western blot.

Results are given in words; binding and its absence hold for the method and conditions named. Binding seen in cells or lysates may run through a third protein. Some entries that bind do so weakly or less than the wild type.

In the case of eIF2α (from UniProt P05198 1-315), the binding entry is listed as “no binding”.

As for eIF3η (from UniProt P55884 1-814), the binding result is given as “binds”.
